Test results taken from PubChem BioAssay AID1347075 (National Center for Advancing Translational Sciences (NCATS), 2019).
Where “and” joins values, the source holds several entries; their conditions need not be identical. Equal entries are not always repeated. Out of some 400,000 compounds screened, about 5,500 (1.4%) were called active. This list was built around the results that the source calls inconclusive (neither active nor inactive); the mix of calls is not that of the screen. The call rests on the fitted dose curve; in most records, active means well fitted cell-killing curve with a large enough effect; inconclusive means small, poorly fitted or top-dose-only effect, or effect the other way; inactive means flat fitted curve, though single readings scatter. Potencies of inconclusive entries are doubtful fits and often do not repeat.
On the % scale 0 is the no-effect control and ±100 the full control effect; potency means the concentration at half of the fitted maximal effect.

Experiment: qHTS assay for MDR1-selective chemotherapeutics: Primary screen using the parental adenocarcinoma cell KB-3-1; further: nearly all actives have a fitted effect of over 60% in size
Conditions: KB-3-1 viability, CellTiter-Glo ATP luminescence, 72 h; activity change, negative = cytotoxic: at 46.1 µM (top of the series)
In short: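 Screening of KB-3-1 cells (DMEM, 10% FBS, phenol-red free) ran from lowest to highest compound concentration; after 72 h at 37 °C viability was read luminescently and curves fitted.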
With `Cc1cc(C)n(-c2nc3ccccc3c(=O)n2OCC#N)n1` the Potency was inconclusive: 0.731 µM [cytotoxic, full curve, poor fit].
With `Cc1ccc(/C=N/NC(=O)C2=NNC(c3ccccc3)(c3ccccc3)C2)c(O)c1` the Potency was inconclusive: 2.59 µM [cytotoxic, full curve].
With `COc1ccc(/C=C/C(=O)NC2CCCCCCC2)cc1S(=O)(=O)N1CCOCC1` the Potency was inconclusive: 18.4 µM [cytotoxic, single point].
For `N#Cc1c2c(c(Nc3ccccc3)n3c1nc1ccccc13)CCC2`, the Potency was inconclusive: 23.1 µM [cytotoxic, single point].
In the case of `Cc1ccc(NC(=O)C2CCCN2S(=O)(=O)c2cccc3nsnc23)cc1Cl` (configuration not stated), the Potency was inconclusive: 18.4 µM [cytotoxic, single point].
With `Cc1cnc(NC(=O)c2cccc(S(=O)(=O)N3CC(C)OC(C)C3)c2)s1` (configuration not stated) the Potency was inconclusive: 29.1 µM [cytotoxic, single point].
In the case of `Nc1sc(Cc2ccccc2)cc1C(=O)NC1CCCCC1`, the Potency was inconclusive: 29.1 µM [cytotoxic, single point].
With `Cc1cc(NC(=O)c2ccccc2F)n(-c2nc3ccccc3[nH]2)n1` the Potency was inconclusive: 29.1 µM [cytotoxic, single point].
With `CSc1cccc(NC(=O)C2CC(=O)N(c3ccc4c(c3)OCCO4)C2)c1` (configuration not stated) the Potency was “inactive”.
For `Cc1[nH]c2ccccc2c1[C@H]1[C@@H](CC#N)C1(C)C`, the Potency was inconclusive: 29.1 µM [cytotoxic, single point].
For `CC1CC(C)CN(S(=O)(=O)N2CCC(C(=O)NCCC3=CCCCC3)CC2)C1` (configuration not stated), the Potency was “inactive”.
In the case of `CO/N=C/c1ccc(N2CCN(C(=O)c3ccc(Cl)cc3Cl)CC2)c([N+](=O)[O-])c1`, the Potency was active: 13 µM.
In the case of `CCSc1nc2c([nH]c3ccccc32)c(=O)n1C`, the Potency was “inactive”.
In the case of `CCc1ccc(NCc2cc3cc(OC)c(OC)cc3n(CC(=O)Nc3cc(C)ccc3C)c2=O)cc1`, the Potency was inconclusive: 16.4 µM [cytotoxic, single point].
For `COc1ccc(S(=O)(=O)N(CC(=O)NCc2ccccc2)c2ccc(C)cc2)cc1OC`, the Potency was “inactive”.
In the case of `Cc1ccc(NC(=O)c2cccc(S(=O)(=O)N3CCCc4ccccc43)c2)nc1`, the Potency was inconclusive: 29.1 µM [cytotoxic, single point].
For `COc1ccc(C(C)n2c(C)c3c(C)nnc(C)c3c2C)cc1` (configuration not stated), the Potency was inconclusive: 0.164 µM [cytotoxic, single point].
For `CN(C)CCCNC(=O)C(=O)Nc1cc2c3c(c1)CCC(=O)N3CCC2`, the Potency was inconclusive: 0.0018 µM [cytotoxic, full curve, poor fit].
With `O=[N+]([O-])c1ccc(O)c(/C=N/Nc2ccc(Cl)nn2)c1` the Potency was inconclusive: 0.0366 µM [cytotoxic, full curve, poor fit].
With `CCCNC(=O)c1ccccc1NC(=O)c1ccccc1N(C)S(=O)(=O)c1ccc(C)cc1` the Potency was active: 18.4 µM.
In the case of `COc1ccc(S(=O)(=O)Nc2cccc(SC)c2)cc1OC`, the Potency was active: 23.1 µM.
In the case of `COC(=O)Cn1c(=NC(=O)c2nc3ccccc3s2)sc2cc(S(N)(=O)=O)ccc21`, the Potency was inconclusive: 29.1 µM [cytotoxic, single point].
In the case of `COc1cccc(CN2CCNC(=O)C2CC(=O)NCc2cc(C(C)C)no2)c1` (configuration not stated), the Potency was inconclusive: 0.461 µM [rising, partial curve, poor fit].
With `COc1ccc(Cn2cccc(NC(=O)Nc3cccc(OC)c3)c2=O)cc1` the Potency was inconclusive: 8.2 µM [cytotoxic, partial curve, poor fit].
In the case of `Cc1ccc(/C=C2\SC(=O)N(CCNC(=O)C3CSC4(C)CCC(=O)N34)C2=O)cc1` (configuration not stated), the Potency was inconclusive: 29.1 µM [rising, single point].
For `O=S1(=O)CCOC[C@H](c2ccccc2)N1Cc1ccccc1F`, the Potency was inconclusive: 29.1 µM [cytotoxic, single point] and inconclusive: 16.4 µM [cytotoxic, partial curve].
In the case of `O=C(Nc1c(Br)cc2c(c1Br)Cc1cc([N+](=O)[O-])ccc1-2)C(Cl)Cl`, the Potency was inconclusive: 20.6 µM [cytotoxic, single point].
For `CC1CCN(c2ncnc3c2nnn3C)CC1`, the Potency was “inactive”.
In the case of `CN(C)S(=O)(=O)c1ccc(Oc2ccc(S(=O)(=O)N(C)C)cc2)cc1`, the Potency was inconclusive: 18.4 µM [cytotoxic, single point].
For `COc1ccc(N2C[C@H](Cc3ccccc3)[C@@H](CC(=O)Nc3ccccc3)C2=O)cc1`, the Potency was “inactive”.
For `Fc1cc(Br)ccc1NC(=S)Nc1ccccc1`, the Potency was inconclusive: 16.4 µM [cytotoxic, single point].
In the case of `Cc1ccc(N2C(=O)CCSC23C(=O)Nc2ccccc23)cc1` (configuration not stated), the Potency was inconclusive: 29.1 µM [cytotoxic, single point].
In the case of `C=CC(=O)NC(NC(=O)C=C)c1ccc(Br)cc1`, the Potency was inconclusive: 23.1 µM [cytotoxic, single point].
For `COc1ccc(OCCCC(=O)Nc2ccc3c(c2)OCCO3)cc1`, the Potency was “inactive”.
For `Cc1cc2c(cc1C)-n1nnnc1C(N1CCN(C(=O)OCc3ccccc3)CC1)C(=O)N2` (configuration not stated), the Potency was inconclusive: 20.6 µM [cytotoxic, single point].
In the case of `Cc1ccc(S(=O)(=O)N2CCC(=O)N(C(COCc3cccc(Cl)c3)Cc3ccccc3)CC2)cc1` (configuration not stated), the Potency was inconclusive: 29.1 µM [cytotoxic, single point].
For `O=c1c(C=NCc2cccnc2)c(C(F)(F)F)[nH]n1-c1nc2ccccc2s1`, the Potency was “inactive”.
In the case of `COc1ccc(C(=O)Nc2ccccc2C(=O)Nc2ccncc2)cc1`, the Potency was inconclusive: 29.1 µM [rising, single point].
With `CC1CC(C)CN(C(=O)c2cccc(S(=O)(=O)N(C)c3ccccc3)c2)C1` (configuration not stated) the Potency was inconclusive: 7.31 µM [cytotoxic, partial curve].
In the case of `Cc1ccc(S(=O)(=O)C(C#N)c2nc3ccccc3nc2N2CCN(C)CC2)cc1` (configuration not stated), the Potency was inconclusive: 9.2 µM [cytotoxic, partial curve, poor fit].
With `COc1ccc2oc(C(=O)OCC(=O)N3CCCCC3)c(C)c2c1` the Potency was “inactive”.
In the case of `CCCc1nc2ccc(Cl)cn2c1Cc1ccccc1OC`, the Potency was inconclusive: 29.1 µM [cytotoxic, single point].
In the case of `COc1ccc(C)cc1Nc1nc(C)nc2sc(C)cc12`, the Potency was inconclusive: 29.1 µM [cytotoxic, single point].
In the case of `COc1cccc(C(=O)Nc2ccc3nc(N4CCC(C)CC4)cc(C)c3c2)c1`, the Potency was inconclusive: 29.1 µM [cytotoxic, partial curve, poor fit].
For `CC(C)(C)c1ccc(-c2cc(C(=O)NNC(=O)Nc3ccccc3)c3ccccc3n2)cc1`, the Potency was inconclusive: 29.1 µM [cytotoxic, single point].
In the case of `Cc1[nH][nH]c(=O)c1C(c1c(C)[nH][nH]c1=O)c1cn(Cc2cccc3ccccc23)c2ccccc12`, the Potency was inconclusive: 29.1 µM [cytotoxic, single point].
With `O=C(NCc1cccc(Br)c1)C1CC(c2ccccc2C(F)(F)F)=NO1` (configuration not stated) the Potency was inconclusive: 29.1 µM [cytotoxic, single point].
In the case of `O=S(=O)(Nc1ccc(F)cc1Cl)c1ccc(-c2cnc(C3CC3)o2)cc1`, the Potency was active: 1.16 µM.
In the case of `Cc1ccc2[nH]c(=O)c3cc(C(=O)N(C)Cc4ccco4)sc3c2c1`, the Potency was inconclusive: 29.1 µM [cytotoxic, single point].
With `COc1ccc(NC(=O)C2Cc3c(-c4cccc(NC(C)=O)c4)ccnc3O2)cc1` (configuration not stated) the Potency was active: 4.11 µM.
In the case of `Cn1c(SCC(=O)c2ccc(F)cc2)nnc1-c1ccccc1Br`, the Potency was inconclusive: 14.6 µM [cytotoxic, partial curve, poor fit].
In the case of `COc1ccc(C)cc1NC(=O)CSc1ccc(-c2ccccn2)nn1`, the Potency was inconclusive: 29.1 µM [cytotoxic, single point].
For `Cc1ccc(/C=C2/SC(=S)N(CCCC(=O)Nc3ccc(O)cc3)C2=O)cc1`, the Potency was inconclusive: 29.1 µM [cytotoxic, single point].
For `Cc1cc(C(=O)NP(=O)(N2CC(C)OC(C)C2)N2CC(C)OC(C)C2)c(C)n1C1CC1` (configuration not stated), the Potency was “inactive”.
With `Cc1cccc(/C=C/c2onc(C)c2[N+](=O)[O-])n1` the Potency was active: 10.3 µM.
For `COc1ccc(CCC(=O)NC2=NCCS2)cc1OC`, the activity change, negative = cytotoxic was inconclusive: -8.01%.
For `COc1ccccc1Cn1c(CCCO)nc2ccccc21`, the Potency was “inactive”.
With `COc1cc(C2C3=C(COC3=O)OC(C)(C)Oc3cc4c(cc32)OCO4)cc(OC)c1OC` (configuration not stated) the Potency was active: 0.731 µM.
In the case of `COc1ccccc1-c1nn2c(C(F)(F)F)nnc2s1`, the Potency was inconclusive: 20.6 µM [cytotoxic, single point].
For `N#CCSc1ccc(-c2nc3ccccc3[nH]2)cn1`, the Potency was inconclusive: 29.1 µM [rising, single point].
In the case of `Cn1nc(C(F)(F)F)c(/C=N/OC(=O)c2ccccc2Cl)c1SCc1ccc(Cl)cc1`, the Potency was inconclusive: 29.1 µM [cytotoxic, single point].
With `COc1ccc(CNC(=O)CSc2ccc(Br)cc2)cc1OC` the Potency was “inactive”.
With `OCc1ccc(O)c2ncccc12` the Potency was inconclusive: 23.1 µM [cytotoxic, partial curve, poor fit].
With `COc1ccc(N2CCCC2)c(NC(=O)c2ccc([N+](=O)[O-])o2)c1` the Potency was inconclusive: 25.9 µM [cytotoxic, single point].
For `CC(O)CC(C(=O)NNc1ccccc1)C(=O)NNc1ccccc1` (configuration not stated), the Potency was inconclusive: 14.6 µM [cytotoxic, single point].
In the case of `COc1ccc(NS(=O)(=O)c2ccc(Cl)c(NC(=O)c3cccnc3Cl)c2)cc1`, the Potency was “inactive”.
In the case of `COC(=O)[C@]12CCCCC=C1N(CCC1=CCCCC1)C(=O)[C@H](CC(=O)NCCCN1CCCC1=O)C2`, the Potency was “inactive”.
